This note sets out measurements from patent US20230201365A1 (Bright Peak Therapeutics AG, priority 2021, published 2023).

Data set [1] in a line: general procedure: Fmoc solid-phase peptide synthesis; Rink Amide MBHA or Rink Amide ChemMatrix resin pre-loaded with protected alpha-ketoacid; 2-chlorotrityl polystyrene resi; HCTU; HATU. The conditions noted are these: whole synthesis.
Data set [2] in a line: general procedure: Fmoc solid-phase peptide synthesis; 2-Chlorotrityl resin pre-loaded with Fmoc-Thr-OH; HCTU; HATU. The following applies: whole synthesis, analytical HPLC and ESI-HRMS, scale 0.34 mmol.

As to “Opr-IL2 (42-69) photoprotected-Leu-α-ketoacid”, the isolated yield in data set [1] (peptide synthesis, resin cleavage and purification) is listed as 16%.

Take Opr-IL2 (105-133): the “final HPLC purity” value in data set [2] is given as above 98%. Further, the isolated mass in data set [1] (scale 0.34 mmol) stood at 108.5 mg. In data set [1] (synthesis, cleavage and purification, scale 0.34 mmol), this substance returned an isolated yield of 9%.
